Values from PubChem BioAssay AID1159578 (Peter MacCallum Cancer Centre, 2015)
Assay: 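siRNA pools altering how lymphatic endothelial cells close a scratch wound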 (primary screen). System: human lymphatic endothelial cells. Reagent: siRNA pool against human genes, 40 nM. Time to read-out: 48 h after transfection. Measurement: 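Cells stained with dye and imaged after a scratch; covered wound area and nuclei counted, duplicates averaged, migration set against mock wells and turned into a robust z-score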. Direction: migration robust z-score: higher = faster migration into the scratch; nuclei per well: higher = more cells in the well. Rule for the call: 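Pools averaging fewer than 3300 nuclei are never called; remaining pools count as changed when migration robust z lies outside -2 to 2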. Calls: active = migration changed; inactive = no migration change, or too few cells.
Shown is one part, drawn at random, of about 18,000 reagents tested. Over the whole deposit, about 1,030 (5.7%) were called active. 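Inactive calls also include pools with fewer than 3300 nuclei, whose migration was not assessed.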 Raw values vary from plate to plate and are shown uncorrected. Further read-outs or replicates are left out here.

COA8 scored migration robust z-score 0.37; migration class with cell-count check migration z between -2 and 2; enough cells; nuclei per well, duplicate mean 6116; inactive.
With knock-down of VWF, the record shows migration robust z-score -0.08; migration class with cell-count check migration z between -2 and 2; enough cells; nuclei per well, duplicate mean 5542; inactive.
With knock-down of WNT9B, the record shows migration robust z-score 0.4; migration class with cell-count check migration z between -2 and 2; enough cells; nuclei per well, duplicate mean 6373; inactive.
For RPL15, the entry reads migration robust z-score -2.24; migration class with cell-count check migration z below -2; enough cells; nuclei per well, duplicate mean 4928; active.
With knock-down of AURKAIP1 the results were migration robust z-score 1.12; migration class with cell-count check migration z between -2 and 2; enough cells; nuclei per well, duplicate mean 5764; inactive.
ARMC2 showed migration robust z-score 1.29; migration class with cell-count check migration z between -2 and 2; enough cells; nuclei per well, duplicate mean 5268; inactive.

2 entries from above, arranged by “migration robust z-score”, highest first.
WNT9B → migration robust z-score = 0.4; migration class with cell-count check = migration z between -2 and 2; enough cells; nuclei per well, duplicate mean = 6373; Call = inactive
VWF → migration robust z-score = -0.08; migration class with cell-count check = migration z between -2 and 2; enough cells; nuclei per well, duplicate mean = 5542; Call = inactive

Continued.
NEK5 showed migration robust z-score -0.18; migration class with cell-count check migration z between -2 and 2; enough cells; nuclei per well, duplicate mean 4347; inactive.
SLC40A1 showed migration robust z-score -0.18; migration class with cell-count check migration z between -2 and 2; enough cells; nuclei per well, duplicate mean 5947; inactive.
Silencing of CYP2C19 resulted in: migration robust z-score -0.07; migration class with cell-count check migration z between -2 and 2; enough cells; nuclei per well, duplicate mean 7411; inactive.
COL15A1 showed migration robust z-score -0.25; migration class with cell-count check migration z between -2 and 2; enough cells; nuclei per well, duplicate mean 5108; inactive.
Knock-down of BRD2 came out at: migration robust z-score -1.38; migration class with cell-count check migration z between -2 and 2; enough cells; nuclei per well, duplicate mean 3770; inactive.
Silencing of HES1 gave: migration robust z-score 1.66; migration class with cell-count check migration z between -2 and 2; enough cells; nuclei per well, duplicate mean 4502; inactive.
